Test results published in the supplement of paper PMC3334620.
In all, about 33,000 sequences were measured (“E-score (-0.5 to 0.5)”: median about -0.0059, highest 2% from about 0.26 on). The list shows a part of the results.

Molecular target: T1, Cin5 (UniProt P40917)
T1 sequence: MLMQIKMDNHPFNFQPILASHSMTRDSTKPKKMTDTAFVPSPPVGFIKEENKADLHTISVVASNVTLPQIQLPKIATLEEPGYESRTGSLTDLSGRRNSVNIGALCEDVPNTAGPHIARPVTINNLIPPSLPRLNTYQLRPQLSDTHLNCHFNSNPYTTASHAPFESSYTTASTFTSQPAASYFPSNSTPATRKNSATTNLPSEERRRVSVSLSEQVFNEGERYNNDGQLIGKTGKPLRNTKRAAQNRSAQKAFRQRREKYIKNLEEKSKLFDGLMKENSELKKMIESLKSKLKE
Experiment: PBM E-score (8-mer binding enrichment) (E-score (-0.5 to 0.5)); higher = stronger / more preferred TF binding
Settings: protein concentration: 100 nM; construct: GST-full length
Method in brief: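 GST-tagged yeast TFs (full-length or DNA-binding domain) were made by PURExpress in vitro transcription/translation and applied at about 100-200 nM to universal all-10-mer Agilent arrays. The arrays were made double-stranded by primer extension, on fresh or once-stripped slides. Bound protein was detected with fluorescent anti-GST, and scans were normalised with masliner. Each ungapped eight-base word, pooled with its reverse complement, received an E-score (modified Wilcoxon-Mann-Whitney statistic) from the Universal PBM Analysis Suite.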

Sequence | PBM E-score
AGCACATC | 0.148
GACGGATA | 0.154
ATCGCTTA | 0.0758
GTCGTTAA | -0.0716
CATTATGA | 0.13
CACTAGTG | -0.00593
CCCAAAAC | 0.111
AGCCCCTC | -0.00972
CCAGCTTC | -0.145
CGCACTAC | -0.0003
CCCCTACG | -0.194
CACGGTAG | -0.201
ACCACTTG | 0.00271
CAAGGATA | 0.0136
TAATTATA | 0.351
CTGAATAA | 0.182
GGCGAAGA | -0.129
AGACGGGG | -0.257
ATAACCCC | -0.0179
CAGTACTA | 0.0853
CCGTGTAC | 0.102
ACCAAGGA | 0.0515
ATCGGGGC | -0.104
AATAGACT | 0.0768
ACTCTCCC | -0.0808

Sequence | PBM E-score
GAGCGATC | -0.00059
TCGGCAAA | -0.0563
ATCGCACG | -0.102
GACATAGC | 0.0934
AAGCGCGA | 0.116
GATCTTGC | 0.153
CGACCAGA | -0.0284
ATCAGTTG | 0.209
CTTCCATC | -0.032
GACGAAGC | -0.0592
GGAACGAC | -0.21
CGTCCGAC | -0.246
CATCCCCC | -0.403
ATATAGTA | 0.235
GCCGCGAA | -0.133
CTAATAGA | 0.134
ACCAGGAG | -0.226
ACAAGACC | -0.15
AAGTAGAA | 0.0909
CTCGAAGC | -0.239
CGAAATAG | 0.00249
AGAGGTAC | -0.218
TCTGCGCA | -0.111
CTCATAAG | 0.135
AATTCCTC | 0.0202

Sequence | PBM E-score
CCTATATC | 0.111
GTCGTGGA | -0.0818
ACATGAGT | -0.0812
GATTTTAC | -0.0152
ACTTGAGC | -0.218
CTATCTAC | 0.0602
GCCTGACA | -0.101
TGGAGAAA | -0.101
TACCAACA | 0.118
TCTGTGCA | 0.118
AATCCCGC | 0.162
CCAATCTA | 0.118
AGTAAGTC | 0.0234
TAGAGGGA | -0.227
CGTATACC | -0.161
CTGTAAAC | 0.079
CTTCCCTC | -0.215
ACCTCCCT | -0.161
ACGCCACA | 0.0272
AAGCAGGT | 0.0448
CGGCATCC | 0.0392
ACCGGAGC | -0.237
CGAATACG | 0.13
CAACCTCG | -4e-05
CGCCAGTA | -0.0438

An excerpt of these results, as tab-separated lines.
Sequence	PBM E-score
AAGTAGAA	0.0909
CTCGAAGC	-0.239

Going on with the list:

Sequence | PBM E-score
AAGGTCCG | -0.247
GATCGTAC | -0.104
GATTCGCC | 0.0741
CAGTTTCC | 0.0648
TGGCCAAA | 0.068
ACCACCTC | 0.102
CCCTACAA | 0.101
GGAGGGTA | 0.00188
AGTCGTCA | -0.172
GGCAAAAA | 0.202
AAAACGCG | 0.0911
ACATCTCT | 0.0525
AACATTTG | -0.00436
CTAGCTTC | -0.0242
ACGAGTAC | 0.023
CAACCGTG | -0.0494
CCCACATC | -0.177
AGAGGAGG | -0.237
CACGCCCA | -0.0514
CGGCGGGA | -0.185
AAGGAATA | 0.148
ATACGCCA | -0.0163
AAATAACC | 0.00655
AATTTTGG | 0.0399
CCAAAGAG | -0.149

Sequence | PBM E-score
TCGTATAA | 0.237
GAGGTGAA | -0.119
CGTCGAAA | -0.0616
GCTTCAAC | 0.00279
CCCTCCGG | -0.413
GGCCGAAC | -0.174
GCATGTCA | 0.0564
GAGCCGCC | -0.147
CTGTCCCA | -0.3
CTCGTCAA | -0.157
AGTTATAC | 0.155
ACCGAGAC | -0.102
ACTAAGAC | 0.0182
GTTCGCGA | 0.0116
GAGAGCAA | -0.116
AGCTTTAA | 0.064
GAATCGTA | -0.00198
GCTAAACC | -0.261
AGATTACA | 0.286
CCTCAGCC | -0.149
GGTCAACC | -0.107
ATTGGACC | -0.152
CAGCACCC | -0.208
GCTGGCAC | -0.314
ATTTGTCC | 0.119

Sequence | PBM E-score
ATCAAGAG | 0.133
CTCACCAA | 0.155
ACGTGCGA | -0.178
ATGGAATC | 0.242
TAGCTATA | 0.0319
CTCATGGC | -0.0334
GCCCTAAC | 0.0312
AAGGACTG | -0.219
GTTCCCGA | -0.11
CTTTCTCC | -0.225
CTAATCAC | 0.248
CTGATGCC | 0.0304
ACTACATA | 0.207
AACCGCAA | 0.166
GTCTCTAA | -0.111
CCGTCTAG | -0.189
ACACAGTC | -0.0243
CCAAAGCC | -0.114
CGGCCACA | -0.177
GCATGCTA | -0.114
ACGACCCA | -0.0226
ATGTATAC | 0.198
CATTGATC | 0.166
GAACTTTA | -0.102
GACGAGCC | -0.125

Sequence | PBM E-score
CGGGCCTA | -0.236
CAAAAGGC | -0.118
TTAAACAA | 0.0568
CATCCGGG | -0.181
CATTTTCC | 0.198
GGCACGCC | -0.293
GTATACGA | 0.00741
AATGAACA | 0.203
AACCTCAT | 0.0154
GCAACAGA | -0.0911
ATCCCGCC | 0.0426
ACCACAGG | -0.219
GGCTATAA | -0.0423
AGATAGAT | -0.00891
ATCCTTAG | -0.0893
ATCTCACG | 0.0285
ACCCGGAT | -0.156
ACACGGCG | 0.00679
CGGACCAG | -0.181
CAAAGCGC | 0.0132
ATGAATGG | 0.301
CGCAATTC | 0.158

In another format: entries from further up
GCAACAGA
  PBM E-score = -0.0911
ATCCCGCC
  PBM E-score = 0.0426
GGCTATAA
  PBM E-score = -0.0423
CGGACCAG
  PBM E-score = -0.181
